From PMC2829546 come the findings set out here.

Chains of the proteins cited; added tags and fusions are not shown. Lines headed by an entry give the natural chain unless they say otherwise; changes in a name come on top.
UniProt P23385: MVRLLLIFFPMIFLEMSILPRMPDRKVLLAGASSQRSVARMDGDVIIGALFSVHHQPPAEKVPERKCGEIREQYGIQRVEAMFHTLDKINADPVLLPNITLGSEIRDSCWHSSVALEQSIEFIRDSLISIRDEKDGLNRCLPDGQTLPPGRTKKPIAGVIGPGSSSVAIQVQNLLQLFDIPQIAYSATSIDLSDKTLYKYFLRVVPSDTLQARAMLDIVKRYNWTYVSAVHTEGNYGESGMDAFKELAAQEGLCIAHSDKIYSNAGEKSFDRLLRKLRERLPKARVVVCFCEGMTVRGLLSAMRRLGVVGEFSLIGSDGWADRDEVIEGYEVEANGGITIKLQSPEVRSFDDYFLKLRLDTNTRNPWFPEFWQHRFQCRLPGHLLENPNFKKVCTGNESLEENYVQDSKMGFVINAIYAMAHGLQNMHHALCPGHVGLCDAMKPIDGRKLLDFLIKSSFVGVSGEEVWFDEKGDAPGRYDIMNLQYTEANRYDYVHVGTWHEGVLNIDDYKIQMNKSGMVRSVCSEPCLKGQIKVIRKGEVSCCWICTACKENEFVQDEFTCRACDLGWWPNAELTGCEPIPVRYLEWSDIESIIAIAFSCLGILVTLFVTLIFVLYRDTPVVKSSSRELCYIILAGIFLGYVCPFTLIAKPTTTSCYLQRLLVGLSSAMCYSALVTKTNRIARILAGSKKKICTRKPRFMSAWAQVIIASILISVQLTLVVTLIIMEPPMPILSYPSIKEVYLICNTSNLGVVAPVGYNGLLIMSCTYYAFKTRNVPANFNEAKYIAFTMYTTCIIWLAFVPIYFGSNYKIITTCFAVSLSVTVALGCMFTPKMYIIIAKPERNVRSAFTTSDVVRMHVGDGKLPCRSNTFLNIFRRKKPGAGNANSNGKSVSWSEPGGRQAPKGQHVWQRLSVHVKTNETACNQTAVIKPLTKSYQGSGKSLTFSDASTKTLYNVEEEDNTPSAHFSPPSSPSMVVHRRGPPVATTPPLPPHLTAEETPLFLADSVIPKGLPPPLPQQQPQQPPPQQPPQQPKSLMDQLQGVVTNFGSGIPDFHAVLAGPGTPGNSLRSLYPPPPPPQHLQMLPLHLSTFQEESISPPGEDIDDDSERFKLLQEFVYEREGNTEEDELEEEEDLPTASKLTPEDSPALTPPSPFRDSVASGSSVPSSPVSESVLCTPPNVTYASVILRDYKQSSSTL
UniProt Q14289: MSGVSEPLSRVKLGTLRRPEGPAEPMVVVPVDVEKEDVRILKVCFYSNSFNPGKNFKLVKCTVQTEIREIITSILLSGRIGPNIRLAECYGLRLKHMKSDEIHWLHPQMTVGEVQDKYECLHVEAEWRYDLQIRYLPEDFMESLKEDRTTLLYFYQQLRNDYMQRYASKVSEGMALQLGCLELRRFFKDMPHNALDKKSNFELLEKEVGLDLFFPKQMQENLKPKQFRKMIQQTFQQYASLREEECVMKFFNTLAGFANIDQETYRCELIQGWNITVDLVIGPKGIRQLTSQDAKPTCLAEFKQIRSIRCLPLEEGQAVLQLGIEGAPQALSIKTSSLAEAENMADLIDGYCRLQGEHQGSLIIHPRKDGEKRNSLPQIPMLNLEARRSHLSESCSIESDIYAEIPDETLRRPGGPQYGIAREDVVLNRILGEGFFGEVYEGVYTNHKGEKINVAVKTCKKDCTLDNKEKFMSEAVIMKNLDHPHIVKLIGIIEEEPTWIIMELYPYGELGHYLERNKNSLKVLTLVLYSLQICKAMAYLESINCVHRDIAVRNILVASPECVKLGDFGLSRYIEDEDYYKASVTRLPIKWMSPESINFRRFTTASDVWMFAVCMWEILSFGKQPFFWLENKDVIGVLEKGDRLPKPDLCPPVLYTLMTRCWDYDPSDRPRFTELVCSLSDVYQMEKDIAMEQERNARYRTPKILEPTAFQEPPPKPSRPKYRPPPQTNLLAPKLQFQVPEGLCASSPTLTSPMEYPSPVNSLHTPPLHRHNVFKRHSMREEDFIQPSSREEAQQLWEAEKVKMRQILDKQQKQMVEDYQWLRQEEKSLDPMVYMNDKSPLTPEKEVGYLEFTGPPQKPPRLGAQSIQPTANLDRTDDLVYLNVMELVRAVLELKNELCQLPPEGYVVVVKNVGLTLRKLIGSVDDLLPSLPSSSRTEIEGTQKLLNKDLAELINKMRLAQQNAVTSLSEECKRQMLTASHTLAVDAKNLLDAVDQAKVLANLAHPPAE

This assay concerns the target FLAG-mGluR1a-866Δ (UniProt P23385). As to the kind of experiment: co-IP; HEK293 cells transiently transfected; 500-1000 ug lysate protein; lysis buffer 25 mM HEPES pH 7.5, 300 mM NaCl, 1.5 mM MgCl2, 0.2 mM EDTA, 0.1% Triton X-100; FLAG-tagged mGluR1 immunoprecipitated with FLAG Sepharose beads overnight at 4 C; cells untreated or treated with 30 uM quisqualate (0-30 min); GDP-AlF4- treatment in Fig. 4C.

Results are given in words; binding and its absence hold for the method and conditions named. Binding seen in cells or lysates may run through a third protein. A result given as binding can be weak or reduced; the word gives no strength.

Consider “HA-Pyk2 (proline-rich tyrosine kinase 2), expressed in HEK293 cells (from UniProt Q14289 1-1009) (enzyme)”, for which the binding result is “binds”.
